Results deposited as PubChem BioAssay AID1224830 (NIAID, 2016)
The deposit covers about 18,000 reagents; this is a random part of them. About 2,900 of all reagents (16%) count as active. 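Calls are made per well; low scores hint the gene aids the LPS response, high scores that it dampens it.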 Repeated entries: four replicate wells of each siRNA pool.

Test: 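Genes whose knock-down alters the TNF-alpha reporter response to LPS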 (primary screen)
Cell system: human THP-1 monocytic leukaemia cells, TNF dual-luciferase reporter clone, PMA-differentiated to macrophage-like cells
Reagent: siRNA pool against human genes, 50 nM
Duration: LPS for 4 h, given about 3 days after siRNA transfection
Conditions: bacterial LPS (TLR4 ligand), 10 ng/ml
Measured: 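Ratio of firefly to renilla light, scaled to the plate median and expressed as a robust z-score per replicate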
Scale: TNF reporter robust z-score: higher = stronger TNF reporter response to LPS
Hit rule: 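Each well counts as active if its z-score is over 2.8 or under -1.5; controls are left without a call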

The first 9 records as a preview:
TNF reporter robust z-score,outcome,target gene
-0.5,inactive,MYL9
0.08,inactive,MYL9
-0.35,inactive,MYL9
-0.59,inactive,MYL9
0.26,inactive,CALML6
1,inactive,CALML6
1.32,inactive,CALML6
0.11,inactive,CALML6
-0.32,inactive,KLK5

Results, from the first entry:
TNF reporter robust z-score,outcome,target gene
-0.5,inactive,MYL9
0.08,inactive,MYL9
-0.35,inactive,MYL9
-0.59,inactive,MYL9
0.26,inactive,CALML6
1,inactive,CALML6
1.32,inactive,CALML6
0.11,inactive,CALML6
-0.32,inactive,KLK5
-0.54,inactive,KLK5
0.2,inactive,KLK5
0.85,inactive,KLK5
0.06,inactive,CHEK2
0.36,inactive,CHEK2
-1.35,inactive,CHEK2
1.42,inactive,CHEK2
-0.7,inactive,TRIM32
0,inactive,TRIM32
-0.53,inactive,TRIM32
0.86,inactive,TRIM32
-1.28,inactive,LACRT
-0.32,inactive,LACRT
-0.19,inactive,LACRT
0.03,inactive,LACRT
-0.16,inactive,B4GALT4
0.85,inactive,B4GALT4
-1.09,inactive,B4GALT4
0.24,inactive,B4GALT4
-0.7,inactive,JOSD1
0.01,inactive,JOSD1
0.1,inactive,JOSD1
-0.34,inactive,JOSD1
-1.6,active,IRF6
-0.95,inactive,IRF6
-0.38,inactive,IRF6
-0.85,inactive,IRF6
0.77,inactive,TFDP2
0.98,inactive,TFDP2
1.27,inactive,TFDP2
1.12,inactive,TFDP2
-0.36,inactive,FRMD8
0.35,inactive,FRMD8
0.2,inactive,FRMD8
0.42,inactive,FRMD8
-0.17,inactive,PARD6B
0.37,inactive,PARD6B
0.22,inactive,PARD6B
0.78,inactive,PARD6B
1.23,inactive,TTC16
1.13,inactive,TTC16
1.17,inactive,TTC16
0.94,inactive,TTC16
2.21,inactive,OPN3
1.72,inactive,OPN3
0.47,inactive,OPN3
1.87,inactive,OPN3
3.19,active,TRAF4
1.93,inactive,TRAF4
2.81,active,TRAF4
5.5,active,TRAF4
-0.25,inactive,MAPK8IP2
1.37,inactive,MAPK8IP2
-0.37,inactive,MAPK8IP2
-1.45,inactive,MAPK8IP2
-0.83,inactive,CDCA8
-1.62,active,CDCA8
-1.9,active,CDCA8
-0.88,inactive,CDCA8
0.81,inactive,NPEPPS
1.14,inactive,NPEPPS
0.43,inactive,NPEPPS
1.93,inactive,NPEPPS
-1.59,active,SYT1
-1.31,inactive,SYT1
-1.63,active,SYT1
-1.83,active,SYT1
1.14,inactive,SLC27A3
1.32,inactive,SLC27A3
-0.38,inactive,SLC27A3
1.06,inactive,SLC27A3
1.96,inactive,KLK4
1.49,inactive,KLK4
2.18,inactive,KLK4
0.57,inactive,KLK4
1.2,inactive,CASP4
3.21,active,CASP4
1.1,inactive,CASP4
2.11,inactive,CASP4
0.09,inactive,UCP1
0.61,inactive,UCP1
-0.16,inactive,UCP1
0.51,inactive,UCP1
-1.45,inactive,ZNF556
-1.65,active,ZNF556
-1.29,inactive,ZNF556
-1.16,inactive,ZNF556
-0.35,inactive,TAPBP
-0.41,inactive,TAPBP
-0.67,inactive,TAPBP
-0.25,inactive,TAPBP
-0.22,inactive,CDKN1B
-0.05,inactive,CDKN1B
-0.92,inactive,CDKN1B
0.51,inactive,CDKN1B
-0.79,inactive,FBLN5
-0.51,inactive,FBLN5
-0.41,inactive,FBLN5
0.37,inactive,FBLN5
-0.15,inactive,CD9
0.67,inactive,CD9
-1.06,inactive,CD9
0.04,inactive,CD9
2.8,active,CGREF1
1.6,inactive,CGREF1
-0.59,inactive,CGREF1
-0.48,inactive,CGREF1
-0.28,inactive,TMEM185A
-1.26,inactive,TMEM185A
-1.29,inactive,TMEM185A
-0.63,inactive,TMEM185A
-1.28,inactive,MRPS27
-1.52,active,MRPS27
-1.09,inactive,MRPS27
-0.73,inactive,MRPS27
0.98,inactive,ZNF493
-0.62,inactive,ZNF493
-1.19,inactive,ZNF493
0.12,inactive,ZNF493
-1.09,inactive,MUSK
-0.93,inactive,MUSK
-0.75,inactive,MUSK
-1.29,inactive,MUSK
-1.28,inactive,PTGFRN
0.1,inactive,PTGFRN
-0.82,inactive,PTGFRN
-0.59,inactive,PTGFRN
1.15,inactive,PEX7
2.35,inactive,PEX7
0.56,inactive,PEX7
2.33,inactive,PEX7
